PubChem BioAssay AID743454 | Peter MacCallum Cancer Centre | 2014
In all, the deposit lists about 18,000 reagents; shown is a part drawn at random. Of all reagents, 450 (2.5%) were called active. 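Single biological run; no consistent viability z cut-off exists, so the class columns, not z-scores, define the calls.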

- Purpose: 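Knock-downs lowering viability or raising caspase 3/7 activity in vorinostat-treated resistant cells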 (primary screen)
- Cell system: human HCT116-VR colon cancer cells, selected for vorinostat resistance
- Reagents: siRNA pool against human genes, 40 nM siRNA pool
- Duration: vorinostat for 24 h, read-out about 72 h after transfection
- Conditions: vorinostat at 2.5 µM final
- Detection: 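Cell viability by CellTiter-Fluor and caspase 3/7 activity by luminescence, each scaled to mock wells per plate, duplicates averaged, then robust z-scored over all plates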
- Direction: viability robust z-score: higher = more viable cells than screen typical; caspase robust z-score: higher = more caspase 3/7 activity than screen typical
- Active means: 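Hits are knock-downs in viability class RV1/RV2 or caspase class CA1/CA2, excluding ones that killed cells in the no-drug cell-count arm; hits then retested with single siRNAs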

Silencing of SGCE (GeneID 8910) came out at: viability hit class no change; caspase hit class no change; viability robust z-score -0.23; caspase robust z-score -0.03; inactive.
For ECE2 (GeneID 9718), the values are viability hit class no change; caspase hit class no change; viability robust z-score -0.7; caspase robust z-score -0.07; inactive.
Against SPINK7 (GeneID 84651), the entry reads viability hit class no change; caspase hit class no change; viability robust z-score 0.22; caspase robust z-score 1.98; inactive.
Silencing of ARFGAP2 (GeneID 84364) came out at: viability hit class no change; caspase hit class no change; viability robust z-score 1.04; caspase robust z-score 1.6; inactive.
For OR8A1 (GeneID 390275) the deposit lists viability hit class no change; caspase hit class no change; viability robust z-score 0.63; caspase robust z-score -0.39; inactive.
SCGB1D4 (GeneID 404552) scored viability hit class no change; caspase hit class no change; viability robust z-score 0.92; caspase robust z-score -0.36; inactive.
With knock-down of AMELX (GeneID 265), the record shows viability hit class no change; caspase hit class no change; viability robust z-score 1.1; caspase robust z-score 0.02; inactive.
With knock-down of CDT1 (GeneID 81620), the record shows viability hit class no change; caspase hit class no change; viability robust z-score 1.18; caspase robust z-score -0.56; inactive.
Depletion of ZSCAN22 (GeneID 342945) gave: viability hit class no change; caspase hit class no change; viability robust z-score -0.14; caspase robust z-score 0.37; inactive.

Just “viability hit class” (2 entries from above):
AMELX (GeneID 265)	no change
CDT1 (GeneID 81620)	no change

Continued.
Depletion of GLT8D2 (GeneID 83468) gave: viability hit class no change; caspase hit class no change; viability robust z-score -1.2; caspase robust z-score -0.14; inactive.
After knock-down of VWC2L (GeneID 402117), the record shows viability hit class no change; caspase hit class no change; viability robust z-score -0.73; caspase robust z-score 2.01; inactive.
With knock-down of GATD1 (GeneID 347862), the screen gave viability hit class no change; caspase hit class no change; viability robust z-score 0.24; caspase robust z-score 0.21; inactive.
SEZ6 (GeneID 124925) showed viability hit class no change; caspase hit class no change; viability robust z-score -1.7; caspase robust z-score 5.11; inactive.
For WIPF2 (GeneID 147179), the entry reads viability hit class no change; caspase hit class no change; viability robust z-score -2.71; caspase robust z-score 2.54; inactive.
SLC35B3 (GeneID 51000) showed viability hit class no change; caspase hit class no change; viability robust z-score -1.53; caspase robust z-score 0.26; inactive.
SYNJ1 (GeneID 8867) scored viability hit class no change; caspase hit class no change; viability robust z-score -0.66; caspase robust z-score -0.28; inactive.
LRFN4 (GeneID 78999) showed viability hit class no change; caspase hit class no change; viability robust z-score -0.46; caspase robust z-score 3.64; inactive.
After knock-down of PLPPR2 (GeneID 64748), the screen gave viability hit class no change; caspase hit class no change; viability robust z-score -1.58; caspase robust z-score 0.16; inactive.
For DHX37 (GeneID 57647) the deposit lists viability hit class no change; caspase hit class no change; viability robust z-score -1.65; caspase robust z-score -1.38; inactive.
Against TMPRSS2 (GeneID 7113) the deposit lists viability hit class no change; caspase hit class no change; viability robust z-score 0.53; caspase robust z-score -0.6; inactive.
After knock-down of CRHR2 (GeneID 1395), the record shows viability hit class no change; caspase hit class no change; viability robust z-score 0.36; caspase robust z-score -0.85; inactive.
